Drawing on paper PMC4937315, this text covers binding for three molecules.

By UniProt entry, the sequences of proteins in these tests, tags left out.
UniProt G5EES3: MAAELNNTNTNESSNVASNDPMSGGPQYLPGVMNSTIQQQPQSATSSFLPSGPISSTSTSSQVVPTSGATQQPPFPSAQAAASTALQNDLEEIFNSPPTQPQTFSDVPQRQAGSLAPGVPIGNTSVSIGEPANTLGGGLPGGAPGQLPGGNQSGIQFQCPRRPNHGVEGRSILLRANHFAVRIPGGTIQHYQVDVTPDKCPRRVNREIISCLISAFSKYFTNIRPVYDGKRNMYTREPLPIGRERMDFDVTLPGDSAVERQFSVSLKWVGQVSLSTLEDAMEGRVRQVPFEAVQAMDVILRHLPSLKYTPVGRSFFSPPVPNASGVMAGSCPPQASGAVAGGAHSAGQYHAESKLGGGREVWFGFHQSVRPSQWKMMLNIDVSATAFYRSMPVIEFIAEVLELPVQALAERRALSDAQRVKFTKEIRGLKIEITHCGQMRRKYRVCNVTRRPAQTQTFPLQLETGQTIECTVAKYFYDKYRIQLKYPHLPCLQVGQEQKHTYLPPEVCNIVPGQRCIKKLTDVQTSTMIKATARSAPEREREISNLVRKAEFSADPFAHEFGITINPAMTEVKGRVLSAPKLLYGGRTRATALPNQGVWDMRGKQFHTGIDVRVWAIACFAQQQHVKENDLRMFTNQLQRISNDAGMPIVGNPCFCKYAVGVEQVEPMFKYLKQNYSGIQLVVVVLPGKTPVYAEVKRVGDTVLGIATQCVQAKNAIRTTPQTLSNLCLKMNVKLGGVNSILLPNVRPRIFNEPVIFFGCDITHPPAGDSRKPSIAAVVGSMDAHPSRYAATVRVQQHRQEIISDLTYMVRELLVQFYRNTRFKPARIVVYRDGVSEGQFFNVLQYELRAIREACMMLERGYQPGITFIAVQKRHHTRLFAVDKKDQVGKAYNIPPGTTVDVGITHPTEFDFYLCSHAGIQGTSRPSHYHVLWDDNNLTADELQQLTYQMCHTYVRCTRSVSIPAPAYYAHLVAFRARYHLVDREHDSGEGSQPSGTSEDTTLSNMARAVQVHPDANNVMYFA
UniProt O16720: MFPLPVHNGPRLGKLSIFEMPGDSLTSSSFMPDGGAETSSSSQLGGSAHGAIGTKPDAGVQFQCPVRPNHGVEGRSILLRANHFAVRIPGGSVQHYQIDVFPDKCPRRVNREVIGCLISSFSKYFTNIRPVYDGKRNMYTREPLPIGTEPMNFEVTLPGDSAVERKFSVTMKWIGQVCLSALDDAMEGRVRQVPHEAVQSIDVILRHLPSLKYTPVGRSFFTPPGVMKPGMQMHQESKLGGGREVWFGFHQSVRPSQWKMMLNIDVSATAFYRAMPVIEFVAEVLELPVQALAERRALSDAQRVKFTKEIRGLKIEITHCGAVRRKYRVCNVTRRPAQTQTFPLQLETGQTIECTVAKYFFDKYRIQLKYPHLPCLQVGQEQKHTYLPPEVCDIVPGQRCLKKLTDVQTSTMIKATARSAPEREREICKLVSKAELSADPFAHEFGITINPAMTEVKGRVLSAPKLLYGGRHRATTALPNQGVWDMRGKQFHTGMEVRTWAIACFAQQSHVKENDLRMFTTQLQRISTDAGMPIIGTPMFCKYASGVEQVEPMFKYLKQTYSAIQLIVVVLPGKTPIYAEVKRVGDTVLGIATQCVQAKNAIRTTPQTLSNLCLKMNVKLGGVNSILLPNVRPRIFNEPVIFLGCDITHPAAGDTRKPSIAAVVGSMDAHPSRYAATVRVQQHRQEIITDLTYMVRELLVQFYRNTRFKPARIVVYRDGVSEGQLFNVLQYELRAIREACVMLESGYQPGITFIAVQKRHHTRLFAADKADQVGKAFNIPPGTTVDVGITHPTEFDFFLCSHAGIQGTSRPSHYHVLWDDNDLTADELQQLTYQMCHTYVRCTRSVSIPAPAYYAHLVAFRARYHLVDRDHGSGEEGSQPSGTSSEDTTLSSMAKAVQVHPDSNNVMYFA

Assay [1] concerns the target T1, PAB-1 (C. elegans cytoplasmic poly(A)-binding protein 1) (C. elegans (endogenous in embryos)) (UniProt Q9U302).
T1 sequence: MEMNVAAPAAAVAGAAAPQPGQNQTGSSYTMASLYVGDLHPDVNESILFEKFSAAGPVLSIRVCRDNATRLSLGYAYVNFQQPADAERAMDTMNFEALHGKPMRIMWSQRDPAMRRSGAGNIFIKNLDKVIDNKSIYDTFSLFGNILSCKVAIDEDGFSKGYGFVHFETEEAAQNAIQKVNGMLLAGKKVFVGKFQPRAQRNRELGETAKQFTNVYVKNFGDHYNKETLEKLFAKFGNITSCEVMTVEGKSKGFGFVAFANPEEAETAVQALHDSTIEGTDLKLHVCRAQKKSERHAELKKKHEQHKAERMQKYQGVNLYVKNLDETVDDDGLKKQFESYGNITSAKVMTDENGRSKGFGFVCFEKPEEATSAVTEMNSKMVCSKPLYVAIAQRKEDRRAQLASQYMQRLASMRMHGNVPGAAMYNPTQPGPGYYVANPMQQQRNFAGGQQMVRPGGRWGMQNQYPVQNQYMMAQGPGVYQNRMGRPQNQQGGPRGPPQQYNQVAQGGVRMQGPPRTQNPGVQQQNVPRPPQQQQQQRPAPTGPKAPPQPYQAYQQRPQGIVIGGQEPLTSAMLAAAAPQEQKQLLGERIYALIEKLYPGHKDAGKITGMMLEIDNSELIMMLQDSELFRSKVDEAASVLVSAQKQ
The experiment in a line: pull-down; proteins of pab-2(ok1851) embryonic S10 lysate (no PAB-2) co-purified with PAB-1, which was pulled down through its ligand GST-PAIP2 on Glutathione-Sepharose beads; 0.1 ng/µl RNase A; western blot.

In assay [2] the target is T2, GST-PAIP2 (mammalian PABP interacting protein 2 fused to GST) (UniProt Q9BPZ3).
T2 sequence: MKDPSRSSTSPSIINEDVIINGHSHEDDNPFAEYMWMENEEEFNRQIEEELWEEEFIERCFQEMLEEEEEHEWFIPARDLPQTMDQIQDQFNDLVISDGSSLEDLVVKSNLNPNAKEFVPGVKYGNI
The experiment in a line: pull-down; 100 µg GST-PAIP2 pre-coupled to Glutathione-Sepharose 4B beads; 2 mg S10 lysate of WT (N2) embryos; 1 h at 4°C; 25 mM Tris-Cl pH 7.5, 100 mM KCl, 2.5 mM MgCl2, 0.1% Triton X-100, 10% glycerol, 0.1 ng/µl RNase A; western blot; RNase A or MNase treatment did not impinge on co-purification; only the target purified.

In assay [3] the target is T2, GST-PAIP2 (mammalian PABP interacting protein 2 fused to GST). The experiment in a line: pull-down; 100 µg GST-PAIP2 pre-coupled to Glutathione-Sepharose 4B beads; S10 lysate of pab-2(ok1851) embryos (no PAB-2); 1 h at 4°C; 0.1 ng/µl RNase A; western blot; only the target purified. (In general: In western blotting, separated proteins are transferred to a membrane and probed.)

Assay [4] has the same target. In words: pull-down; depletion of the embryonic translation extract with matrix-bound GST-PAIP2 (as in ref. 24); what is left in the treated extract read by western blot; only the target purified.

Results are given in words; binding and its absence hold for the method and conditions named. Binding seen in cells or lysates may run through a third protein. Some results given as binding are weak or reduced against the parent protein; the word gives no strength. For some assays here: Tags and fused reporters may be left off the sequences shown.

As for “ALG-1 (miRNA-dedicated Argonaute protein) (from UniProt G5EES3 1-1023)”, in assay [1], the binding entry was “binds”. Same read-out and setting: then “ALG-2 (miRNA-dedicated Argonaute protein) (from UniProt O16720 1-910)”, with “binds”.

B1: PAB-1 (C. elegans cytoplasmic poly(A)-binding protein 1) (protein, UniProt Q9U302 1-646)
chain: T1 sequence
Turning to B1, the binding result in assay [2], in assay [3] and in assay [4] was “binds” in each case.
